## Cleaved PARP after 72 h of treatment

Values as published with doi:10.1371/journal.pone.0140310, rounded.

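The test systems are human melanoma cell lines, treated with two drugs together for 72 h and then stained and imaged. Each value is the cleaved-PARP-positive fraction of nuclei relative to DMSO-treated wells, in %, so that 100 equals the control and higher values mean more apoptosis. Concentrations were fixed for each drug; these are the higher of two levels. No replicate spread is given; individual values may be noisy. Basal and induced levels differ widely between cell lines.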 Only some of the drugs and lines screened are listed, without regard to their results. A dash means that no value is listed here.

First drug in all entries: BI-D1870, 1 µM, CC(C)CCN1c2nc(Nc3cc(F)c(O)c(F)c3)ncc2N(C)C(=O)C1C (centres undefined)

Partner,IST-MEL1,LOX IMVI,A2058,LB2518-MEL,MZ2-MEL,SK-MEL-28,RVH-421,WM1716,WM115,UACC-62,MEL-HO,COLO 792,G-361,WM451Lu,COLO 800
N#Cc1c(O)c2c(-c3ccc(-c4ccccc4O)cc3)csc2[nH]c1=O at 10 µM,83.2,135,105,37.0,44.1,106,72.5,25.6,30.6,34.9,105,97.4,28.0,98.1,125
COc1ccc(C2=N[C@@H](c3ccc(Cl)cc3)[C@@H](c3ccc(Cl)cc3)N2C(=O)N2CCNC(=O)C2)c(OC(C)C)c1 at 0.5 µM,127,120,132,69.5,130,109,275,128,104,128,82.7,79.5,191,199,217
Cn1cc(C2=C(c3cn(C4CCN(Cc5ccccn5)CC4)c4ccccc34)C(=O)NC2=O)c2ccccc21 at 4 µM,48.3,249,319,111,206,291,80.6,974,131,230,95.9,88.6,118,424,177
C[C@]1(O)C[C@@H](c2nc(-c3ccc4ccc(-c5ccccc5)nc4c3)c3c(N)nccn32)C1 at 2 µM,297,317,89.8,125,39.3,43.2,417,137,120,136,140,138,109,144,174
CCN(CC)CCCCNc1ncc2cc(-c3cc(OC)cc(OC)c3)c(NC(=O)NC(C)(C)C)nc2n1 at 0.5 µM,192,136,159,67.5,18.2,97.5,56.3,119,40.7,88.9,89.0,86.6,115,85.1,230
C#Cc1cccc(Nc2ncnc3cc(OCCOC)c(OCCOC)cc23)c1 at 4 µM,379,19.0,291,94.4,127,124,31.0,89.2,64.9,234,154,303,164,28.9,173
Cn1nnc2c(C(N)=O)ncn2c1=O at 10 µM,78.1,136,168,73.7,42.2,82.3,93.2,505,150,143,56.4,129,92.5,56.1,286
CC(C)(C)c1cnc(CSc2cnc(NC(=O)C3CCNCC3)s2)o1 at 0.05 µM,68.5,227,161,76.4,63.6,488,187,77.8,105,364,94.3,151,203,268,77.9
Cc1ccc(Nc2nccc(N(C)c3ccc4c(C)n(C)nc4c3)n2)cc1S(N)(=O)=O at 2 µM,163,146,194,-,-,205,184,159,63.0,222,255,49.4,178,124,139
COc1cc2ncnc(Nc3ccc(Oc4ccccc4)cc3)c2cc1OC at 10 µM,69.9,96.6,294,-,-,56.0,109,147,91.9,380,138,144,878,140,109
COC(=O)c1sccc1S(=O)(=O)Nc1ccc(Nc2ccccc2)cc1OC at 5 µM,140,182,140,68.8,44.5,89.8,308,85.8,210,271,126,84.1,35.2,156,94.6
Cc1cn(-c2cc(NC(=O)c3ccc(C)c(Nc4nccc(-c5cccnc5)n4)c3)cc(C(F)(F)F)c2)cn1 at 1 µM,167,114,130,62.6,76.4,65.5,1110,341,118,167,116,74.2,261,131,75.8
CNC(=O)c1cc(Oc2ccc(NC(=O)Nc3ccc(Cl)c(C(F)(F)F)c3)cc2)ccn1 at 2 µM,67.2,98.4,128,-,-,121,96.3,97.7,61.5,157,116,34.1,177,41.0,113
COCC[n+]1c2c(n(Cc3cnccn3)c1C)C(=O)c1ccccc1C2=O at 0.002 µM,250,59.3,2950,447,283,164,213,115,228,316,153,386,61.9,584,627
CN(C)S(=O)(=O)c1ccc2c(c1)/C(=C/c1cc3c([nH]1)CCCC3)C(=O)N2 at 2 µM,51.2,126,246,-,-,57.5,260,131,362,266,65.5,116,274,289,124
CCCCCCCCc1ccc(CCC(N)(CO)CO)cc1 at 10 µM,192,184,356,104,61.4,103,222,127,180,405,75.4,89.2,378,3190,379
CC[C@]1(O)C[C@H]2CN(CCc3c([nH]c4ccccc34)[C@@](C(=O)OC)(c3cc4c(cc3OC)N(C=O)[C@H]3[C@@](O)(C(=O)OC)[C@H](OC(C)=O)[C@]5(CC)C=CCN6CC[C@]43[C@@H]65)C2)C1 at 0.0005 µM,407,49.1,890,186,505,466,184,3650,5430,356,178,193,806,2740,144
O=c1cc(-c2cccc3c2Sc2ccccc2S3)oc(N2CCOCC2)c1 at 5 µM,34.1,150,257,70.5,115,108,43.7,85.4,119,562,30.5,113,322,160,72.7
Clc1ccc(Nc2nnc(Cc3ccncc3)c3ccccc23)cc1 at 10 µM,219,152,158,70.0,94.1,100,131,205,54.1,39.0,38.6,390,115,82.9,124
NCC(=O)Nc1ccc(-n2nc(C(F)(F)F)cc2-c2ccc3c(ccc4ccccc43)c2)cc1 at 5 µM,298,123,149,97.5,46.8,335,383,50.5,39.2,19.3,63.1,114,188,70.6,123
OCc1c[nH]c2ccccc12 at 4 µM,142,126,151,116,117,71.2,126,87.5,54.6,55.2,209,69.1,363,788,110
COc1cc(N2CCC(N3CCN(C)CC3)CC2)ccc1Nc1ncc(Cl)c(Nc2ccccc2S(=O)(=O)C(C)C)n1 at 0.4 µM,251,79.7,199,63.1,138,62.9,204,226,341,57.2,84.2,189,152,242,204
C=CCNC1=C2C[C@@H](C)C[C@H](OC)[C@H](O)[C@@H](C)/C=C(\C)[C@H](OC(N)=O)[C@@H](OC)/C=C\C=C(/C)C(=O)NC(=CC1=O)C2=O at 0.01 µM,247,140,274,109,370,548,444,241,1900,231,319,169,419,683,215

The first 3 entries again:

Partner	IST-MEL1	LOX IMVI	A2058	LB2518-MEL	MZ2-MEL	SK-MEL-28	RVH-421	WM1716	WM115	UACC-62	MEL-HO	COLO 792	G-361	WM451Lu	COLO 800
N#Cc1c(O)c2c(-c3ccc(-c4ccccc4O)cc3)csc2[nH]c1=O at 10 µM	83.2	135	105	37.0	44.1	106	72.5	25.6	30.6	34.9	105	97.4	28.0	98.1	125
COc1ccc(C2=N[C@@H](c3ccc(Cl)cc3)[C@@H](c3ccc(Cl)cc3)N2C(=O)N2CCNC(=O)C2)c(OC(C)C)c1 at 0.5 µM	127	120	132	69.5	130	109	275	128	104	128	82.7	79.5	191	199	217
Cn1cc(C2=C(c3cn(C4CCN(Cc5ccccn5)CC4)c4ccccc34)C(=O)NC2=O)c2ccccc21 at 4 µM	48.3	249	319	111	206	291	80.6	974	131	230	95.9	88.6	118	424	177